Measured values reported in article PMC4938201.
These are yes or no findings as the source states them, for the method shown. Some entries that bind do so weakly or less than the wild type.

Amino acid sequences for entries named in this document (tags omitted). Residues count along the entry.
UniProt O75306, residues 34-463: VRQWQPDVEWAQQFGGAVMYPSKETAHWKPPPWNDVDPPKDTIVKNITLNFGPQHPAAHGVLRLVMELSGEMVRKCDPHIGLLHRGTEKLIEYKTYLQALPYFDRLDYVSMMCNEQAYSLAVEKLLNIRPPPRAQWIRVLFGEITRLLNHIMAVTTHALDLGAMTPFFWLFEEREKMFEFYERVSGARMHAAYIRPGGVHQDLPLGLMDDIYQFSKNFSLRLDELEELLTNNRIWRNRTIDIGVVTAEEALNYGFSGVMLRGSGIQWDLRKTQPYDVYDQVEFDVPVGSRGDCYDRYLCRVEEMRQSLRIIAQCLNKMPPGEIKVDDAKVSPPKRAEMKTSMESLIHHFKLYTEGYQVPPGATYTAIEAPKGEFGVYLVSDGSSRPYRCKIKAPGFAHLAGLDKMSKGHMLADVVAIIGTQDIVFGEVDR
UniProt Q9BU61: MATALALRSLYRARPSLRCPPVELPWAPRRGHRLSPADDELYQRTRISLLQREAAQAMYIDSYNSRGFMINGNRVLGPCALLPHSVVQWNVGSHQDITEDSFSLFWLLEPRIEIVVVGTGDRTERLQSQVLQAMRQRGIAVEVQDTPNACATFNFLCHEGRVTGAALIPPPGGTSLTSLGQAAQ

Biological target: peripheral arm subunit NDUFS2 (endogenous in 143B cells) (human (endogenous in 143B)) (UniProt O75306)
Experiment: native gel or EMSA; BN-PAGE of inner mitochondrial membrane proteins of 143B cells, Western-blotted and probed with antibodies against NDUFS2 and NDUFAF3; cells treated with negative control siRNA or siRNA for NDUFB3 or NDUFAF5

binding: binds
Substance: assembly factor NDUFAF3 (endogenous in 143B cells) (from UniProt Q9BU61 1-184)
